These are yes or no findings as the source states them, for the method shown. Binding seen in cells or lysates may run through a third protein. Binding calls can cover weak binding; strength is not graded here. Where a sequence is shown, tags or fusion partners need not be part of it. Each block holds one binder with its values, some of them ahead of it.
Tests used:
GST-HEY1 (full-length) = assay: pull-down; GST fusion proteins purified and bound to Sepharose beads, incubated with whole cell extracts of transfected U2OS cells in NETN buffer (20 mM Tris/HCl pH 8.0, 1 mM EDTA, 0.5% Nonidet P-40, 100 mM NaCl); western blot of bound proteins; only the target purified
GST-HEY1-S68D = assay: as above

binding (GST-HEY1 (full-length)): binds
B1: Flag-tagged HEY2 (hairy/enhancer-of-split related with YRPW motif 2) (protein, UniProt Q9UBP5 1-337)
chain: MKRPCEETTSESDMDETIDVGSENNYSGQSTSSVIRLNSPTTTSQIMARKKRRGIIEKRRRDRINNSLSELRRLVPTAFEKQGSAKLEKAEILQMTVDHLKMLQATGGKGYFDAHALAMDFMSIGFRECLTEVARYLSSVEGLDSSDPLRVRLVSHLSTCATQREAAAMTSSMAHHHHPLHPHHWAAAFHHLPAALLQPNGLHASESTPCRLSTTSEVPPAHGSALLTATFAHADSALRMPSTGSVAPCVPPLSTSLLSLSATVHAAAAAATAAAHSFPLSFAGAFPMLPPNAAAAVAAATAISPPLSVSATSSPQQTSSGTNNKPYRPWGTEVGAF

binding (GST-HEY1-S68D): binds | binding (GST-HEY1 (full-length)): binds
B2: Flag-tagged NONO (Non-Pou Domain Containing, Octamer-Binding) (protein, UniProt Q15233 1-471)
chain: MQSNKTFNLEKQNHTPRKHHQHHHQQQHHQQQQQQPPPPPIPANGQQASSQNEGLTIDLKNFRKPGEKTFTQRSRLFVGNLPPDITEEEMRKLFEKYGKAGEVFIHKDKGFGFIRLETRTLAEIAKVELDNMPLRGKQLRVRFACHSASLTVRNLPQYVSNELLEEAFSVFGQVERAVVIVDDRGRPSGKGIVEFSGKPAARKALDRCSEGSFLLTTFPRPVTVEPMDQLDDEEGLPEKLVIKNQQFHKEREQPPRFAQPGSFEYEYAMRWKALIEMEKQQQDQVDRNIKEAREKLEMEMEAARHEHQVMLMRQDLMRRQEELRRMEELHNQEVQKRKQLELRQEEERRRREEEMRRQQEEMMRRQQEGFKGTFPDAREQEIRMGQMAMGGAMGINNRGAMPPAPVPAGTPAPPGPATMMPDGTLGLTPPTTERFGQAATMEGIGAIGGTPPAFNRAAPGAEFAPNKRRRY

— article PMC5293587
